Values from PubChem BioAssay AID686943 (Drosophila RNAi Screening Center, 2013)
The screen tested about 23,000 reagents; shown is a random part of those that have a named target and a result. 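Extra replicates exist only for a retested subset of genes; insulin dose and duration not given; both raised and lowered dpERK matter.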 Further read-outs or replicates are left out here. Not given: the amount of reagent, the time to read-out.

Assay: 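Knockdowns that increase or decrease active ERK after insulin receptor stimulation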 (primary screen)
Cell system: Drosophila S2R+ haemocyte-like cells expressing YFP-tagged ERK (Rolled)
Knock-down reagent: long dsRNA against Drosophila genes
Treatment: insulin stimulation versus unstimulated cells; dose and duration not given
Measurement: 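Per-plate z-scores of phospho-ERK immunostaining normalised to YFP-tagged ERK, measured with and without insulin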
Direction: replicate 1, z-score of dpERK with insulin: higher = more active ERK per ERK-YFP after insulin

The opening 3 records, ahead of the listing:
no.	target	dsRNA	replicate 1, z-score of dpERK with insulin
1	CG32719	DRSC17525	0.87
2	cN-IIIB	DRSC04359	-0.12
3	Tsp29Fa	DRSC03232	-0.7

The list itself, repeating the preview:
no.	target	dsRNA	replicate 1, z-score of dpERK with insulin
1	CG32719	DRSC17525	0.87
2	cN-IIIB	DRSC04359	-0.12
3	Tsp29Fa	DRSC03232	-0.7
4	CG4553	DRSC15595	0.12
5	cic	DRSC14276	-1.41
6	cic	DRSC15708	-2.69
7	cic	DRSC16918	0.35
8	cic	DRSC21243	-1.14
9	CG3902	DRSC10387	0.08
10	CG11147	DRSC02129	0.38
11	Cpr67Fa1	DRSC10932	-0.35
12	CG1738	DRSC19772	-0.08
13	CG13577	DRSC04213	-0.61
14	CG6674	DRSC10692	-1
15	aay	DRSC11320	0.51
16	CG14830	DRSC08876	0.07
17	htk	DRSC20029	-0.43
18	htk	DRSC20031	0.34
19	CG5645	DRSC10532	-0.06
20	CG9175	DRSC03153	0.12
21	CG8578	DRSC20114	0.53
22	CG6055	DRSC02923	0.73
23	fl(2)d	DRSC07620	-0.92
24	morgue	DRSC00264	-1.13
25	Cp18	DRSC11120	0.09
26	CG31922	DRSC21703	-0.71
27	Tsp42Ek	DRSC06187	0.76
28	Sry-beta	DRSC16868	0.2
29	thoc6	DRSC10528	-0.16
30	CG9826	DRSC04570	0.18
31	a6	DRSC18733	-0.45
32	Cyp4aa1	DRSC07368	-0.49
33	CG6321	DRSC10623	0
34	Atox1	DRSC22416	-0.28
35	slim	DRSC06921	-0.15
36	MtnB	DRSC22744	0.71
37	CG14089	DRSC10093	-0.39
38	Shrm	DRSC06437	-1.7
39	Shrm	DRSC06438	-0.09
40	Shrm	DRSC07221	0.39
41	CG11327	DRSC02146	-0.36
42	GstE1	DRSC07437	-0.09
43	Galt	DRSC03161	0.15
44	CG33784	DRSC12764	1.21
45	CG10433	DRSC04068	0.38
46	CG34266	DRSC08323	-1.77
47	Sf3b6	DRSC09972	1.43
48	Nubpl	DRSC03725	0.11
49	CG15803	DRSC15121	1.17
50	CG9257	DRSC03173	-0.2
51	Myt1	DRSC11228	0.38
52	CngA	DRSC06580	-1.11
53	CngA	DRSC07362	0.15
54	CG9899	DRSC04597	-0.82
55	CG2962	DRSC18247	0.1
56	CR4575	DRSC18372	1.38
57	Gat	DRSC17144	-0.97
